Experimental data from the supplement of paper PMC10849652.
The other results are listed elsewhere or left out.

Sequences of proteins named here, by UniProt entry; tags and fusion partners are left off. A change or cut given only in a name is not applied to a line headed by its entry.
UniProt Q96GX9: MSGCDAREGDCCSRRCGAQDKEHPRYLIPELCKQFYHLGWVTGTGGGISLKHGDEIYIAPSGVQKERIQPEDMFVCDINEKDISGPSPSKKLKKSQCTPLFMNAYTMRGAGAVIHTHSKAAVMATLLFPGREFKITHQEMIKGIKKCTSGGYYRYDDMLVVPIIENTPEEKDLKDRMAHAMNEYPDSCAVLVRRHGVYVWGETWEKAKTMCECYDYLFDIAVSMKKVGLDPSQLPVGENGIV
UniProt Q9BZZ5: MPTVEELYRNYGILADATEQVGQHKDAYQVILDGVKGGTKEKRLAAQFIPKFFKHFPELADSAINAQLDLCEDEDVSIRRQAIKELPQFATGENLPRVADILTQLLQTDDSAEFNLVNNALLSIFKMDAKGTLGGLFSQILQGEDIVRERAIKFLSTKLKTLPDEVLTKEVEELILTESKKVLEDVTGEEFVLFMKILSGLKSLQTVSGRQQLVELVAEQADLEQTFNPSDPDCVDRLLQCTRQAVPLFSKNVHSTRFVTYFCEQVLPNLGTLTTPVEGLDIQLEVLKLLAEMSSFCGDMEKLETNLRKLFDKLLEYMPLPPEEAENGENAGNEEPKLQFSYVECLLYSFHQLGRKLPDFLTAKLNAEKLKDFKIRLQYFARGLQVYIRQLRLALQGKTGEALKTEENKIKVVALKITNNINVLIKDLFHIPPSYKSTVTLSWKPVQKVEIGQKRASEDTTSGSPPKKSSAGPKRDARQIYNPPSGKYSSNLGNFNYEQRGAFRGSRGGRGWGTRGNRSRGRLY
UniProt P61204: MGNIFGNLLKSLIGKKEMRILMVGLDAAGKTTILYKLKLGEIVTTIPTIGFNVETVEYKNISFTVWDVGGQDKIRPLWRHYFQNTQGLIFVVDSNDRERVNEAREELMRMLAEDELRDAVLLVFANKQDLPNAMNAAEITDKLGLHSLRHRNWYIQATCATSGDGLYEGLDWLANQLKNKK
UniProt O14727: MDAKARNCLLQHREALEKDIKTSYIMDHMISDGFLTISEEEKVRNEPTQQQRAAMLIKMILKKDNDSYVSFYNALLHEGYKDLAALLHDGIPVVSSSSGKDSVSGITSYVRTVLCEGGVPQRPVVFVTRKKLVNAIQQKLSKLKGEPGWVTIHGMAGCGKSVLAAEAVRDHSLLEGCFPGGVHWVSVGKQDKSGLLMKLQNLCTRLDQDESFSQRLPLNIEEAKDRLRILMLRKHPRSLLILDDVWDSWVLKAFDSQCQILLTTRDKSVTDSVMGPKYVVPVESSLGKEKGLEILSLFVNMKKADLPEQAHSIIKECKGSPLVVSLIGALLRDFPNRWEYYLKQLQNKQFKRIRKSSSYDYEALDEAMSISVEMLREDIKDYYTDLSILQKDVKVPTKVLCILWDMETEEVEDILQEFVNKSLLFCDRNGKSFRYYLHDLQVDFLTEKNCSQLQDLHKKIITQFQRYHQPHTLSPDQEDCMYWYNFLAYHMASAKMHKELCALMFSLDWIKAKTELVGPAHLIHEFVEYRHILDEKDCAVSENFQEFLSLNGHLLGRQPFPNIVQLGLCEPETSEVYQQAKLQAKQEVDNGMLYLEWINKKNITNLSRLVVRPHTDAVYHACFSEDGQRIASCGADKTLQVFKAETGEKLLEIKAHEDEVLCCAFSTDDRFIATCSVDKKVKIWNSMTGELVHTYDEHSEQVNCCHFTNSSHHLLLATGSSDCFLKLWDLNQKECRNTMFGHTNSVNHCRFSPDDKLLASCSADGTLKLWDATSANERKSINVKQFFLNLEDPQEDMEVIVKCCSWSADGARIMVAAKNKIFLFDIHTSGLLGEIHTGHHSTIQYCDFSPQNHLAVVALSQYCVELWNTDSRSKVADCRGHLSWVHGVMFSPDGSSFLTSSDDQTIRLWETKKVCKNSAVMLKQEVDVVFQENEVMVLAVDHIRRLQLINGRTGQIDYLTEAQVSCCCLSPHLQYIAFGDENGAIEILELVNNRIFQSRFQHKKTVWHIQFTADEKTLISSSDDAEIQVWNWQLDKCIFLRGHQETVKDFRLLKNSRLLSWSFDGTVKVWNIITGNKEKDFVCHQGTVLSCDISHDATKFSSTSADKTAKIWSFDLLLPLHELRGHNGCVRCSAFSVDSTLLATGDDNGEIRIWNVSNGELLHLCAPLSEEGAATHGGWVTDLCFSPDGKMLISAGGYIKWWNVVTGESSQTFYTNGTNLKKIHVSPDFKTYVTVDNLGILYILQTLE
UniProt Q07960: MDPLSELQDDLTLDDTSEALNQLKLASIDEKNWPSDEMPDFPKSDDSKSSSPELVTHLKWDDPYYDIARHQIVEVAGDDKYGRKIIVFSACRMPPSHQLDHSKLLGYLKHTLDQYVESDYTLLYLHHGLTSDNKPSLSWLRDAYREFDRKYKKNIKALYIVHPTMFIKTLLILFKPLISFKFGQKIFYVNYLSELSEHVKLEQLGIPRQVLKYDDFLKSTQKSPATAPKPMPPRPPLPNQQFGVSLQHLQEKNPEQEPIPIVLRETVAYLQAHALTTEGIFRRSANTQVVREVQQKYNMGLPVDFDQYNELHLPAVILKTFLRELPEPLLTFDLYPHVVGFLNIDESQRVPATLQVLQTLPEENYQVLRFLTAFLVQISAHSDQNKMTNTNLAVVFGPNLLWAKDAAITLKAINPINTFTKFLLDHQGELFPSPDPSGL
UniProt Q8N2F6: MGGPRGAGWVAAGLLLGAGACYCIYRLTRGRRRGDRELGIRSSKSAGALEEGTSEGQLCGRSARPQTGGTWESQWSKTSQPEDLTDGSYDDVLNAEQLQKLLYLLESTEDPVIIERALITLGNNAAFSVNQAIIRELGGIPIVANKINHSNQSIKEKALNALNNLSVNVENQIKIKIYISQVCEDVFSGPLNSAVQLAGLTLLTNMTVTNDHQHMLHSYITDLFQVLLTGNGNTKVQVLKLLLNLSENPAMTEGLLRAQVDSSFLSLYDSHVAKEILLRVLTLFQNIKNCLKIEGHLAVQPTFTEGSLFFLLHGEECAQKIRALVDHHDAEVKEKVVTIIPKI
UniProt Q9NVJ2: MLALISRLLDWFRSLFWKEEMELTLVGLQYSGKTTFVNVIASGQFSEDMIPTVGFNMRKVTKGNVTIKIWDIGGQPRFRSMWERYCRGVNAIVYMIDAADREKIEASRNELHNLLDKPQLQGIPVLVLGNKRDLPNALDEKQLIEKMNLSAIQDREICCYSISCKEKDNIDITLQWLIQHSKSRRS
UniProt Q92974: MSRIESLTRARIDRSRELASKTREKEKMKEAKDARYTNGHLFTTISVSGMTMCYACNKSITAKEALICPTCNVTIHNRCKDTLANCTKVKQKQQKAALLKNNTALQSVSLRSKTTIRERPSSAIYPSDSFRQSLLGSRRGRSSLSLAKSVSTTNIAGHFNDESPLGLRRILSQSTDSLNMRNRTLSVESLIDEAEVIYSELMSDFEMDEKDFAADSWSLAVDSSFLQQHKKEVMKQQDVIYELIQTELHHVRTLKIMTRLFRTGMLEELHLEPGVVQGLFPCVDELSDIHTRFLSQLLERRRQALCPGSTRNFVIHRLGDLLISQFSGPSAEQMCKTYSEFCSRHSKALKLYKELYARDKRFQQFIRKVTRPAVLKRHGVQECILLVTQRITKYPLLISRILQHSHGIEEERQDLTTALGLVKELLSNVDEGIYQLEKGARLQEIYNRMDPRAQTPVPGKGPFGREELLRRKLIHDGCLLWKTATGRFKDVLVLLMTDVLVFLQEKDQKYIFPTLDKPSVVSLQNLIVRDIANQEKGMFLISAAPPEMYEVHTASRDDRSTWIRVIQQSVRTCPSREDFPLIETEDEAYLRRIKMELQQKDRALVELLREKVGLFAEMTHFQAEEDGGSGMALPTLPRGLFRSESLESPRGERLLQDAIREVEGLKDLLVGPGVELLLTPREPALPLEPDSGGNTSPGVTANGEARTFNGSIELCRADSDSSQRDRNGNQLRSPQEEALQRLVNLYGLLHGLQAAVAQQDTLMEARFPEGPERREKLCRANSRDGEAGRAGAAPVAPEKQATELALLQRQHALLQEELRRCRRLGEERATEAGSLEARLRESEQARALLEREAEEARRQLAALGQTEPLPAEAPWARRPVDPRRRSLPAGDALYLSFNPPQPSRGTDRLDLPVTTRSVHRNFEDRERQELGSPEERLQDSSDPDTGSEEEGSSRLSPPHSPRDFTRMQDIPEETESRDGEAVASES
UniProt P49407: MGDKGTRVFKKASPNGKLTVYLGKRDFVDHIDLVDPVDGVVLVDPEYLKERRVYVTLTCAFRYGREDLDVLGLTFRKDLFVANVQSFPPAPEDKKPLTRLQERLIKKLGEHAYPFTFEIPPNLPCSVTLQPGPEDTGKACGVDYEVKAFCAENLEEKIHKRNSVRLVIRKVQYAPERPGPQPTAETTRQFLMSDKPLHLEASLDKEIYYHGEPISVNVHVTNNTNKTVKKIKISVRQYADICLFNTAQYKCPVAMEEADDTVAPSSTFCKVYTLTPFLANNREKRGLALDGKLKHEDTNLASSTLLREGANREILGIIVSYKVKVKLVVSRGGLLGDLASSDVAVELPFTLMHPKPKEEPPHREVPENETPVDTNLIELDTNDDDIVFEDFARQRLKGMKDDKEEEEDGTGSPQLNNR
UniProt Q8IVW6: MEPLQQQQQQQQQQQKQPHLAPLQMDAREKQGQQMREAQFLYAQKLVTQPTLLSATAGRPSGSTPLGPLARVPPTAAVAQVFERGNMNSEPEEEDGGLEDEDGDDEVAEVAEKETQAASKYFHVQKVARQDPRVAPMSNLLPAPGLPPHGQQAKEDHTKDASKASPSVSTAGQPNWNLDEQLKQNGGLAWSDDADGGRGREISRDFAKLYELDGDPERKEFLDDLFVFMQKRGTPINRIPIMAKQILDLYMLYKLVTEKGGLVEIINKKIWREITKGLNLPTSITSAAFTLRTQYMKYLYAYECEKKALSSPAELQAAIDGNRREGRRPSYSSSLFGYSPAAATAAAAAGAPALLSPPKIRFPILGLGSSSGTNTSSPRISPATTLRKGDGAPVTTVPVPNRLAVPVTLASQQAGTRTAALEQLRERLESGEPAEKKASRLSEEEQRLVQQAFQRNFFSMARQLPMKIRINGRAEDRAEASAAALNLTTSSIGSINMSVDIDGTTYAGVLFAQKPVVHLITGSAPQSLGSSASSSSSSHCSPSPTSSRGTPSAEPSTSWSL
UniProt P02649, whole entry, looked up: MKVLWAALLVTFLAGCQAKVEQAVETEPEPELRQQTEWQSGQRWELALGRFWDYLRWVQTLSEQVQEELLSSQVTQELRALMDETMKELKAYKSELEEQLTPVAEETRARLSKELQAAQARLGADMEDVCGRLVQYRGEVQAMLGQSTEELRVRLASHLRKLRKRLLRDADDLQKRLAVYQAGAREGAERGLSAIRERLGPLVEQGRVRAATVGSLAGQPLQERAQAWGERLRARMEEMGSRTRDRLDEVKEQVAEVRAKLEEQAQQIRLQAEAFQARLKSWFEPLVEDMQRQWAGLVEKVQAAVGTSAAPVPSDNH
UniProt Q9Y587: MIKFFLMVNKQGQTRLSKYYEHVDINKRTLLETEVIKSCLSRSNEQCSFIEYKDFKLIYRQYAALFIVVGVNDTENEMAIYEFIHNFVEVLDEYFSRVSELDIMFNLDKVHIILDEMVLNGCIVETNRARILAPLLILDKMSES
UniProt Q66PJ3: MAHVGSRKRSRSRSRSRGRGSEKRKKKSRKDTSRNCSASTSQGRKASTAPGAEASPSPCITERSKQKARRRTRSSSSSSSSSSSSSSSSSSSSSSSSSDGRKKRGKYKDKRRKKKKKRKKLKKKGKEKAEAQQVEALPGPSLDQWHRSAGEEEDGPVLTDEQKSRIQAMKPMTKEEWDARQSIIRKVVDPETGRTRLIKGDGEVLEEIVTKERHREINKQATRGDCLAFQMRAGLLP
UniProt Q9UH62: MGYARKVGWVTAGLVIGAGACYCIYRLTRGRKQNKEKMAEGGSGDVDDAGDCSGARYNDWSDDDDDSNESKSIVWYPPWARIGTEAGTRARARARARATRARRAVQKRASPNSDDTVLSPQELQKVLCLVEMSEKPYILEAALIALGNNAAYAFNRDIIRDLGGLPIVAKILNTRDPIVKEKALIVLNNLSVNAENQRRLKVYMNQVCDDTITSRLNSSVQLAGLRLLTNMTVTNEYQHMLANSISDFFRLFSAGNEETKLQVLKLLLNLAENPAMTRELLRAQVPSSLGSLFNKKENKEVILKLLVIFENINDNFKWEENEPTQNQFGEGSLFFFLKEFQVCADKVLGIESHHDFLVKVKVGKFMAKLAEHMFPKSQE

Experiments:
Assay in all cases: log2 fold change, soluble protein after heating vs DMSO (PISA); higher = thermal stabilisation; K562 lysate, 10 uM; active = over 0.2 and 3.5 SD of the protein, either way, in both replicates (recomputed)
alvocidib = compound: CN1CC[C@H](c2c(O)cc(O)c3c(=O)cc(-c4ccccc4Cl)oc23)[C@H](O)C1 [alvocidib]
How it was run: (§1)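 Following dounce homogenisation of K562 pellets in PBS pH 7.4 with 1 mM MgCl2, crude extract at 1 mg/mL protein was incubated for 30 min with 10 μM compound. Aliquots were then heated for 3 min over 48°C-58°C and pooled, NP-40 was added to 0.5% at 4°C, and soluble protein was recovered as the supernatant at 21,000xg for 90 min. Channel-sum-equalised TMTpro 16plex LC-MS/MS quantified this protein. Each value, from duplicates, is a log-two fold change in thermal stability relative to solvent controls.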

Tubastatin A = compound: CN1CCc2c(c3ccccc3n2Cc2ccc(C(=O)NO)cc2)C1 [Tubastatin A]
How it was run: as §1

[1] = compound: CNC(=O)C1=CC=CC=C1NC2=NC(=NC=C2Cl)NC3=C(C=C(C=C3)N4CCOCC4)OC
How it was run: as §1

defactinib = compound: CNC(=O)c1ccc(Nc2ncc(C(F)(F)F)c(NCc3nccnc3N(C)S(C)(=O)=O)n2)cc1 [defactinib]
How it was run: as §1

[2] = compound: CNc1nc(-c2ccc3c(N)n[nH]c3c2)cc(N2C[C@@H](C(=O)NC3CCCCC3)CC[C@H]2C)n1
How it was run: as §1

encorafenib = compound: COC(=O)N[C@@H](C)CNc1nccc(-c2cn(C(C)C)nc2-c2cc(Cl)cc(NS(C)(=O)=O)c2F)n1 [encorafenib]
How it was run: as §1

[3] = compound: COC(=O)[C@H](CCSC)NC(=O)C1=C(C=C(C=C1)NC[C@H](CS)N)C2=CC=CC=C2
How it was run: as §1

alisertib = compound: COc1cc(Nc2ncc3c(n2)-c2ccc(Cl)cc2C(c2c(F)cccc2OC)=NC3)ccc1C(=O)O [alisertib]
How it was run: as §1

[4] = compound: COc1cc2nc(-c3cc(F)ccc3O)nc(N[C@@H]3CNC[C@H]3C(C)(C)O)c2cc1OC
How it was run: as §1

gefitinib = compound: COc1cc2ncnc(Nc3ccc(F)c(Cl)c3)c2cc1OCCCN1CCOCC1 [gefitinib]
How it was run: as §1

lapatinib = compound: CS(=O)(=O)CCNCc1ccc(-c2ccc3ncnc(Nc4ccc(OCc5cccc(F)c5)c(Cl)c4)c3c2)o1 [lapatinib]
How it was run: as §1

pictilisib = compound: CS(=O)(=O)N1CCN(Cc2cc3nc(-c4cccc5[nH]ncc45)nc(N4CCOCC4)c3s2)CC1 [pictilisib]
How it was run: as §1

crizotinib = compound: C[C@@H](Oc1cc(-c2cnn(C3CCNCC3)c2)cnc1N)c1c(Cl)ccc(F)c1Cl [crizotinib]
How it was run: as §1

[5] = compound: C[C@H](C1=CC=C(C=C1)C(=O)NC2=C3C=CNC3=NC=C2)N
How it was run: as §1

duvelisib = compound: C[C@H](Nc1ncnc2nc[nH]c12)c1cc2cccc(Cl)c2c(=O)n1-c1ccccc1 [duvelisib]
How it was run: as §1

gandotinib = compound: Cc1cc(Nc2cc(CN3CCOCC3)c3nc(C)c(Cc4ccc(Cl)cc4F)n3n2)n[nH]1 [gandotinib]
How it was run: as §1

tozasertib = compound: Cc1cc(Nc2cc(N3CCN(C)CC3)nc(Sc3ccc(NC(=O)C4CC4)cc3)n2)n[nH]1 [tozasertib]
How it was run: as §1

doramapimod = compound: Cc1ccc(-n2nc(C(C)(C)C)cc2NC(=O)Nc2ccc(OCCN3CCOCC3)c3ccccc23)cc1 [doramapimod]
How it was run: as §1

bafetinib = compound: Cc1ccc(NC(=O)c2ccc(CN3CC[C@H](N(C)C)C3)c(C(F)(F)F)c2)cc1Nc1nccc(-c2cncnc2)n1 [bafetinib]
How it was run: as §1

[6] = compound: Cc1cccc(CC(=O)N2CCc3c2ccc(-c2cn(C)c4ncnc(N)c24)c3F)n1
How it was run: as §1

Measured: log2 fold change

APIP (UniProt Q96GX9)
inactive: alvocidib -0.089 | Tubastatin A 0.017 | [1] -0.037 | defactinib 0.025 | [2] -0.003 | encorafenib 0.08 | [3] -0.074 | alisertib 0.011 | [4] 0.044 | gefitinib 0.018 | lapatinib -0.031 | pictilisib 0.008 | crizotinib -0.007 | [5] -0.213 | duvelisib 0.036 | gandotinib 0.098 | tozasertib -0.024 | doramapimod -0.004 | bafetinib 0.057 | [6] 0.126

API5 isoform 2 (UniProt Q9BZZ5)
inactive: alvocidib 0.097 | Tubastatin A 0.024 | [1] -0.067 | defactinib -0.006 | [2] -0.046 | encorafenib 0.016 | [3] 0.052 | alisertib 0.019 | [4] 0.036 | gefitinib 0.115 | lapatinib 0.016 | pictilisib 0.018 | crizotinib 0.004 | [5] 0.033 | duvelisib 0.009 | gandotinib -0.076 | tozasertib -0.09 | doramapimod 0.027 | bafetinib -0.081 | [6] -0.117

ARF3 (UniProt P61204)
inactive: alvocidib -0.058 | Tubastatin A 0.066 | [1] 0.015 | defactinib 0.016 | [2] 0.034 | encorafenib 0.016 | [3] -0.015 | alisertib 0.008 | [4] 0.051 | gefitinib 0.032 | lapatinib -0.011 | pictilisib -0.034 | crizotinib 0.016 | [5] -0.142 | duvelisib 0 | gandotinib 0.093 | tozasertib -0.01 | doramapimod 0.069 | bafetinib -0.029 | [6] 0.044

APAF1 (UniProt O14727)
inactive: alvocidib -0.006 | Tubastatin A -0.174 | [1] -0.026 | defactinib -0.015 | [2] 0.008 | encorafenib -0.017 | [3] 0.129 | alisertib -0.027 | [4] 0.061 | gefitinib 0.017 | lapatinib 0.022 | pictilisib -0.068 | crizotinib -0.09 | [5] -0.015 | duvelisib -0.011 | gandotinib -0.058 | tozasertib -0.025 | doramapimod 0.05 | bafetinib 0.02 | [6] 0.061

ARHGAP1 (UniProt Q07960)
inactive: alvocidib -0.01 | Tubastatin A 0.101 | [1] 0.023 | defactinib 0 | [2] 0.002 | encorafenib -0.018 | [3] 0 | alisertib 0.014 | [4] 0.045 | gefitinib -0.004 | lapatinib -0.003 | pictilisib 0.018 | crizotinib 0.071 | [5] -0.037 | duvelisib -0.003 | gandotinib 0.05 | tozasertib -0.049 | doramapimod -0.009 | bafetinib 0.014 | [6] -0.02

ARMC10 (UniProt Q8N2F6)
inactive: alvocidib 0.025 | Tubastatin A 0.035 | [1] -0.006 | defactinib 0.006 | [2] 0.022 | encorafenib -0.005 | [3] 0.037 | alisertib 0.039 | [4] 0.062 | gefitinib 0.009 | lapatinib -0.011 | pictilisib 0.047 | crizotinib -0.047 | [5] -0.007 | duvelisib -0.022 | gandotinib -0.096 | tozasertib -0.002 | doramapimod -0.01 | bafetinib 0.087 | [6] 0.012

ARHGEF1 (UniProt M0QZR4)
inactive: alvocidib 0.011 | Tubastatin A -0.085 | [1] 0.016 | defactinib -0.005 | [2] -0.016 | encorafenib 0.022 | [3] 0.063 | alisertib 0.001 | [4] -0.01 | gefitinib -0.014 | lapatinib 0.006 | pictilisib -0.011 | crizotinib -0.041 | [5] -0.038 | duvelisib -0.007 | gandotinib -0.012 | tozasertib 0.029 | doramapimod 0.02 | bafetinib -0.019 | [6] 0.106

ARL8B (UniProt Q9NVJ2)
inactive: alvocidib -0.077 | Tubastatin A -0.031 | [1] 0 | defactinib 0.036 | [2] 0.011 | encorafenib 0.04 | [3] -0.05 | alisertib 0.029 | [4] 0.053 | gefitinib 0.042 | lapatinib 0.022 | pictilisib 0.005 | crizotinib -0.033 | [5] -0.09 | duvelisib 0.044 | gandotinib 0.064 | tozasertib -0.046 | doramapimod 0.057 | bafetinib 0.051 | [6] 0.127

ARHGEF2 (UniProt Q92974)
inactive: alvocidib -0.009 | Tubastatin A -0.081 | [1] 0.047 | defactinib -0.004 | [2] 0.058 | encorafenib 0.07 | [3] 0.071 | alisertib 0.018 | [4] -0.005 | gefitinib 0.007 | lapatinib 0.014 | pictilisib 0.005 | crizotinib -0.016 | [5] 0.006 | duvelisib -0.017 | gandotinib 0.025 | tozasertib 0.018 | doramapimod 0.089 | bafetinib -0.045 | [6] 0.04

ARRB1 (UniProt P49407)
inactive: alvocidib -0.006 | Tubastatin A 0.04 | [1] -0.012 | defactinib 0.004 | [2] 0.044 | encorafenib -0.003 | [3] -0.045 | alisertib 0.019 | [4] 0.002 | gefitinib 0 | lapatinib 0.011 | pictilisib 0.002 | crizotinib 0.004 | [5] -0.061 | duvelisib 0 | gandotinib 0.001 | tozasertib 0.002 | doramapimod -0.025 | bafetinib 0.032 | [6] 0.006

Reprinted from the listing (three entries):
ARMC10 (UniProt Q8N2F6)
inactive: alvocidib 0.025 | Tubastatin A 0.035 | [1] -0.006 | defactinib 0.006 | [2] 0.022 | encorafenib -0.005 | [3] 0.037 | alisertib 0.039 | [4] 0.062 | gefitinib 0.009 | lapatinib -0.011 | pictilisib 0.047 | crizotinib -0.047 | [5] -0.007 | duvelisib -0.022 | gandotinib -0.096 | tozasertib -0.002 | doramapimod -0.01 | bafetinib 0.087 | [6] 0.012

ARHGEF1 (UniProt M0QZR4)
inactive: alvocidib 0.011 | Tubastatin A -0.085 | [1] 0.016 | defactinib -0.005 | [2] -0.016 | encorafenib 0.022 | [3] 0.063 | alisertib 0.001 | [4] -0.01 | gefitinib -0.014 | lapatinib 0.006 | pictilisib -0.011 | crizotinib -0.041 | [5] -0.038 | duvelisib -0.007 | gandotinib -0.012 | tozasertib 0.029 | doramapimod 0.02 | bafetinib -0.019 | [6] 0.106

ARL8B (UniProt Q9NVJ2)
inactive: alvocidib -0.077 | Tubastatin A -0.031 | [1] 0 | defactinib 0.036 | [2] 0.011 | encorafenib 0.04 | [3] -0.05 | alisertib 0.029 | [4] 0.053 | gefitinib 0.042 | lapatinib 0.022 | pictilisib 0.005 | crizotinib -0.033 | [5] -0.09 | duvelisib 0.044 | gandotinib 0.064 | tozasertib -0.046 | doramapimod 0.057 | bafetinib 0.051 | [6] 0.127

Later entries

ARPP19 (UniProt H3BMD8)
inactive: alvocidib -0.058 | Tubastatin A 0.051 | [1] 0.037 | defactinib -0.014 | [2] 0.016 | encorafenib -0.056 | [3] -0.07 | alisertib -0.029 | [4] -0.004 | gefitinib -0.049 | lapatinib -0.017 | pictilisib -0.035 | crizotinib -0.04 | [5] -0.161 | duvelisib 0.075 | gandotinib 0.118 | tozasertib -0.037 | doramapimod -0.016 | bafetinib 0.001 | [6] 0.097

ARID3B (UniProt Q8IVW6)
inactive: alvocidib -0.112 | Tubastatin A -0.036 | [1] 0.013 | defactinib 0.154 | [2] 0.04 | encorafenib 0.078 | [3] 0.027 | alisertib 0.064 | [4] 0.009 | gefitinib -0.039 | lapatinib 0.049 | pictilisib -0.017 | crizotinib 0.028 | [5] -0.155 | duvelisib -0.034 | gandotinib -0.037 | tozasertib -0.029 | doramapimod -0.005 | bafetinib 0.022 | [6] 0.166

APOE (UniProt P02649)
inactive: alvocidib 0.044 | Tubastatin A 0.025 | [1] 0.041 | defactinib 0.015 | [2] -0.007 | encorafenib 0.046 | [3] -0.03 | alisertib -0.123 | [4] -0.02 | gefitinib 0.015 | lapatinib -0.036 | pictilisib -0.068 | crizotinib 0.017 | [5] 0.068 | duvelisib 0.029 | gandotinib -0.062 | tozasertib -0.061 | doramapimod -0.002 | bafetinib -0.036 | [6] -0.02

AP4S1 (UniProt Q9Y587)
inactive: alvocidib 0.004 | Tubastatin A -0.107 | [1] -0.046 | defactinib -0.062 | [2] -0.096 | encorafenib 0.001 | [3] -0.039 | alisertib -0.081 | [4] 0.01 | gefitinib 0.042 | lapatinib 0.028 | pictilisib -0.014 | crizotinib 0.014 | [5] 0.025 | duvelisib -0.102 | gandotinib -0.064 | tozasertib -0.004 | doramapimod -0.043 | bafetinib 0.004 | [6] 0.004

ARL6IP4 (UniProt Q66PJ3)
inactive: alvocidib -0.045 | Tubastatin A 0.034 | [1] 0.082 | defactinib 0.026 | [2] 0.077 | encorafenib 0.044 | [3] -0.016 | alisertib -0.039 | [4] 0.005 | gefitinib 0.015 | lapatinib 0.018 | pictilisib 0.033 | crizotinib 0.085 | [5] -0.094 | duvelisib -0.02 | gandotinib 0.09 | tozasertib -0.06 | doramapimod -0.014 | bafetinib 0.041 | [6] -0.044

ARMCX3 (UniProt Q9UH62)
inactive: alvocidib 0.022 | Tubastatin A -0.061 | [1] -0.018 | defactinib 0.017 | [2] 0.026 | encorafenib -0.006 | [3] 0.015 | alisertib 0.055 | [4] 0.042 | gefitinib -0.053 | lapatinib -0.058 | pictilisib 0.005 | crizotinib -0.076 | [5] 0.078 | duvelisib 0.064 | gandotinib -0.064 | tozasertib 0.005 | doramapimod -0.003 | bafetinib -0.044 | [6] 0.032
